In the assay the test system is BDF1 mice, P388 leukemia ip, median survival T/C. Put plainly: NCI In Vivo Anticancer Drug Screen. Data for tumor model P388 Leukemia (intraperitoneal) in B6D2F1 (BDF1) mice. Particulars: T/C endpoint: median survival time, higher T/C = longer survival. The method in brief: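 Antitumour effect was judged in vivo: survival in drug-treated mice, normalised to that of vehicle-dosed controls, gives the reported T/C.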

Setting [1] is: dose: 12.5 mg/kg/injection, schedule: Q01DX009 (ip), vehicle: Klucel (hydroxypropylcellulose) (HPC).
The mark [2] stands for this setting: dose: 25.0 mg/kg/injection, schedule: Q01DX009 (ip), vehicle: Klucel (hydroxypropylcellulose) (HPC).
[3] abbreviates: dose: 50.0 mg/kg/injection, schedule: Q01DX009 (ip), vehicle: Klucel (hydroxypropylcellulose) (HPC).
Setting [4] is: dose: 100.0 mg/kg/injection, schedule: Q01DX009 (ip), vehicle: Klucel (hydroxypropylcellulose) (HPC).
Where [5] appears, read: dose: 200.0 mg/kg/injection, schedule: Q01DX009 (ip), vehicle: Klucel (hydroxypropylcellulose) (HPC).
Setting [6] is: dose: 50.0 mg/kg/injection, schedule: Q01DX009 (ip), vehicle: water.
The mark [7] stands for this setting: dose: 100.0 mg/kg/injection, schedule: Q01DX009 (ip), vehicle: water.
Where [8] appears, read: dose: 100.0 mg/kg/injection, schedule: Q01DX009 (ip), vehicle: saline with Tween-80.

SMILES strings stand for the structures. The list does not hold the whole screen: it gathers tests that were run many times, whatever their T/C, doses with no T/C, and many T/C values between a quarter and a half above the control. Further doses and runs are listed elsewhere. T/C is the treated group as % of the vehicle group. Some entries give survivors of the animals treated and no T/C: the source files T/C as zero there, which appears to mark a toxic dose or a test without result, not a measured value. Some survivor counts are full or nearly so, which does not show that the dose was tolerated: the source hardly ever lists a survival T/C far under the control, and the zero likely stands for such cases as well. Survivors were counted at the toxicity check, usually on the fifth day, unless a day is given; later deaths do not show. Schedule codes are those of the source, read here as Q, the interval in days (D) or hours (H), X, the number of doses. Some entries were tested several times; the values are given in rising order. For survival time, the PubChem record calls one and a half times the control and up active, and a quarter to a half above the control has no call in these data; cut-offs in other NCI protocols can differ. Some T/C values carry the count of animals alive at the toxicity check (mostly the fifth day); without a count, all were alive then.

Take `COc1c(C=O)c2c(c(OC)c1OC)-c1ccc(OC)c(=O)cc1[C@@H](NC(C)=O)CC2`: the survivor count under setting [1] is reported as 6 of 6; the survivor count under setting [2] is on record as 5 of 6; the survivor count under setting [3] is given as 0 of 6; the survivor count under setting [4] is listed as 0 of 6; the survivor count under setting [5] was 0 of 6.
Regarding `COC(=O)C1C(O)C(C)C(O)C(C)C=C(C)C2=C3C(=C(C)C(=O)c4c(O)c(c(C)c(OC(C)=O)c43)NC(=O)C(C)=C/C=C\C(C)C(O)C(C)C1O)OCO2` (stereo not drawn), the survivor count under setting [5] is recorded as 1 of 6.
Regarding `CCC[CH2][Sn]([CH2]CCC)([CH2]CCC)[S]C(=S)NCCNC(=S)[S][Sn]([CH2]CCC)([CH2]CCC)[CH2]CCC`, the survivor count (dose: 6.25 mg/kg/injection, schedule: Q01DX010 (ip), vehicle: saline) is recorded as 0 of 6.
As for `OC(CBr)C(O)C(O)C(O)CBr` (stereo not drawn), the survivor count is 10 of 10 under setting [4]; 6 of 6 (dose: 500.0 mg/kg/injection, schedule: Q01DX010 (ip), vehicle: carboxymethylcellulose (CMC)); 6 of 6 (dose: 500.0 mg/kg/injection, schedule: Q01DX010 (ip), vehicle: saline); 5 of 6 (dose: 1000.0 mg/kg/injection, schedule: Q01DX010 (ip), vehicle: carboxymethylcellulose (CMC)). Moreover, the T/C reads like this: under setting [5], 130 % of control [9 of 10 alive]; (dose: 250.0 mg/kg/injection, schedule: Q01DX001 (ip), vehicle: carboxymethylcellulose (CMC)) 125 % of control; (dose: 500.0 mg/kg/injection, schedule: Q01DX001 (ip), vehicle: carboxymethylcellulose (CMC)) 130 % of control.
For `N#C/C(=C/c1ccccc1)CBr`, where the note is “dose: 100.0 mg/kg/injection, schedule: Q01DX001 (ip), vehicle: saline with Tween-80”, the survivor count is 2 of 6.
Turning to `CS(=O)(=O)OCCCl`, the survivor count (dose: 150.0 mg/kg/injection, schedule: Q01DX010 (ip), vehicle: saline) was 5 of 6 and 6 of 6.
Turning to `CC(=O)N/N=C(/C)C(=O)O`, the T/C is, setting by setting: (dose: 25.0 mg/kg/injection, schedule: Q01DX009 (ip), vehicle: water) 88, 90 [4 of 6 alive], 105, 116 % of control; under setting [6], 104 [5 of 6 alive], 105 [5 of 6 alive], 129 % of control; under setting [7], 88 [4 of 6 alive], 111 [5 of 6 alive], 129 % of control. Further, the survivor count runs as follows: under setting [6], 6 of 6; under setting [7], 3 of 6; (dose: 200.0 mg/kg/injection, schedule: Q01DX009 (ip), vehicle: water) 1 of 6 and 3 of 6.
As for `O=C(Nc1cc(C(F)(F)F)cc(C(F)(F)F)c1)Nc1c(Oc2ccc(Cl)cc2Cl)ccc(Cl)c1S(=O)(=O)O`, under “dose: 200.0 mg/kg/injection, schedule: Q04DX003 (ip), vehicle: saline sonified”, the survivor count is listed as 6 of 6.
Consider `CCCCCCCCCCCCCCCCOc1ccc(Cl)cc1`, for which the survivor count (dose: 100.0 mg/kg/injection, schedule: Q01DX001 (ip), vehicle: saline sonified) is on record as 6 of 6.
For `O=C1NC(=O)C(=Cc2cc3c(cc2Br)OCO3)C(=O)N1`, the T/C (dose: 200.0 mg/kg/injection, schedule: Q01DX009 (ip), vehicle: saline with Tween-80) was 132 % of control.
In the case of `C=CCCc1cc(OC)ccc1C(=O)C(C)C`, under setting [8], the T/C is 137 % of control.
Regarding `Cc1c(-c2ccccc2)cc(O)cc1-c1ccccc1`, the T/C (dose: 100.0 mg/kg/injection, schedule: Q04DX003 (ip), vehicle: saline) is 129 % of control.
`C[C@]12CC[C@@H]3c4ccc(Oc5nc(N6CC6)nc(N6CC6)n5)cc4CC[C@H]3[C@@H]1CCC2=O`: under “dose: 12.5 mg/kg/injection, schedule: Q01DX009 (ip), vehicle: saline with Tween-80”, the T/C was 141 % of control. In addition, the survivor count is, setting by setting: (dose: 25.0 mg/kg/injection, schedule: Q01DX009 (ip), vehicle: saline with Tween-80) 5 of 6; (dose: 50.0 mg/kg/injection, schedule: Q01DX009 (ip), vehicle: saline with Tween-80) 2 of 6; under setting [8], 0 of 6.
With `CCOC(=O)C(C)(C)CN(CC(C)(C)C(=O)OCC)C(C)(C)C`, the T/C (dose: 200.0 mg/kg/injection, schedule: Q01DX001 (ip), vehicle: saline) was 140 % of control.
Turning to `COc1cc2c(c(OC)c1OC)-c1ccc(SCc3ccccc3)c(=O)cc1[C@@H](NC(C)=O)CC2`, the T/C by setting is: (dose: 6.25 mg/kg/injection, schedule: Q01DX009 (ip), vehicle: Klucel (hydroxypropylcellulose) (HPC)) 146 % of control [5 of 6 alive]; under setting [1], 132 % of control. Further, the survivor count was 6 of 6 (dose: 18.0 mg/kg/injection, schedule: Q01DX009 (ip), vehicle: Klucel (hydroxypropylcellulose) (HPC)); 4 of 6 and 6 of 6 under setting [2]; 0 of 6 under setting [3]; 0 of 6 under setting [4]; 0 of 6 under setting [5]; 0 of 6 (dose: 400.0 mg/kg/injection, schedule: Q01DX009 (ip), vehicle: Klucel (hydroxypropylcellulose) (HPC)).
As for `O=c1[nH]c2nc(Cl)c(Cl)nc2[nH]1`, the survivor count (dose: 400.0 mg/kg/injection, schedule: Q04DX003 (ip), vehicle: saline) was 3 of 6.
For the compound `Nc1nc(SCc2ccccc2Cl)c2ncn(C3OC(CO)C(O)C3O)c2n1` (stereo not drawn), the survivor count (dose: 400.0 mg/kg/injection, schedule: Q01DX009 (ip), vehicle: saline) is recorded as 5 of 6.
In the case of `CN=C(N)Nc1ccc(C(=O)Oc2ccc([N+](=O)[O-])cc2)cc1`, the survivor count reads like this: under setting [7], 5 of 6; (dose: 400.0 mg/kg/injection, schedule: Q04DX003 (ip), vehicle: water) 4 of 6.
As for `CC(C)Sc1nc(N)nc2nc[nH]c12`, the survivor count runs as follows: under setting [4], 6 of 6; under setting [5], 0 of 6; (dose: 400.0 mg/kg/injection, schedule: Q04DX003 (ip), vehicle: Klucel (hydroxypropylcellulose) (HPC)) 2 of 6.
Take `COc1ccc(C=Nc2ccc(OC(C)=O)cc2)cc1`: the T/C (dose: 100.0 mg/kg/injection, schedule: Q01DX009 (ip), vehicle: other) was 136 % of control.
Consider `CCCCCCCCCC(O)CCCCCC` (stereo not drawn), for which the survivor count (dose: 50.0 mg/kg/injection, schedule: Q01DX009 (ip), vehicle: other) was 6 of 6 and the survivor count (dose: 400.0 mg/kg/injection, schedule: Q04DX003 (ip), vehicle: other) is listed as 5 of 6. Also, where the note is “dose: 200.0 mg/kg/injection, schedule: Q01DX009 (ip), vehicle: other”, the T/C was 125 % of control.
Turning to `C=CC(O)CN1CC1` (stereo not drawn), the T/C (dose: 5.0 mg/kg/injection, schedule: Q04DX003 (ip), vehicle: saline) is 137 % of control. Besides, the survivor count (dose: 20.0 mg/kg/injection, schedule: Q04DX003 (ip), vehicle: saline) is 4 of 6.
